Assay results from doi:10.1101/2022.07.08.499339 (bioRxiv, 2022).
These are yes or no findings as the source states them, for the method shown. Some results given as binding are weak or reduced against the parent protein; the word gives no strength.

Target: CeMIGA2_(long), C. elegans MIGA (106-496) (C. elegans) (UniProt Q21096)
Test: crystal structure

binding: binds
B1: CeMIGA2_(long), C. elegans MIGA (106-496) (domain or fragment, UniProt Q21096 106-496, looked up)
chain: SMNPIEADITSGQELCTELRKTIEKVHHNLEMVKNRSSKDMERSIKIEGILKGLKQVEDEIVLLVPQMEDFRDDNMEFYSVSGGSGYAGSVRTGRSRTLSVLSDDSFRSAVEEFACDIDDIDFVSDAANLDKNELRFLDEGMQAALNGEVKYRKSRMEFCKCDSETDFAAKLYCVRQALTNALKDEHKRVWLAKCGRTLLADFIRHTKQDPVKFFNAYDEMLEYVSNDRNEEQLRQDVEGRGVCETGFYDVAIDFIILDAFEDLKSPPSAVYSVTKNYFMSMSMKYSTLNTIIWSIIKSKRQRLKNPDGFIAKFYNISETVMPAITLGFLGTDERLGELCQYFKEQVVQFVLDVFNTQKVCYRSLEEMSEDVWIVMRNRLEAVQTRMSNEL
